{"source": "patent US10834886B2", "about": "“Switchgrass cultivar PanIR” (priority 2017, dated 2020)", "origin": "cited, not measured here", "test_system": "switchgrass cultivars, Alamo and Kanlow", "settings": "pre-plant application; compared with the untreated check; cited from earlier work", "note": "Some entries share one result that the patent states for a list of compounds."}
{"smiles": "CCNc1nc(Cl)nc(NCC)n1", "note": "[simazine]", "values": [{"measurement": "reduction of switchgrass stands", "value": "10-20%"}]}
{"smiles": "CCNc1nc(Cl)nc(NC(C)(C)C)n1", "note": "[terbuthylazine]", "values": [{"measurement": "reduction of switchgrass stands", "value": "10-20%"}]}
